# Reference: the supplement of paper PMC8728848
# Some of the results follow.
# Experiments:
# Assay in all cases: glycan array binding signal (z-score within array); higher = stronger binding
# Conditions in all cases: glycan notation: IUPAC condensed, linker removed
# [1] = system: Gal(b1-3)[Fuc(a1-4)]GlcNAc(b1-6)GalNAc
# Summary of the method: (§1)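 The binding signal is a Z-score computed within each array and averaged over linkers. Arrays of the same protein sequence at different concentrations or buffers were also averaged together. Data originate from 3228 arrays in the Consortium for Functional Glycomics database, kept only where the protein sequence was available.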
# [2] = system: Gal(b1-3)[Fuc(a1-4)]GlcNAc
# Summary of the method: as §1
# [3] = system: Gal(b1-3)[GlcNAc(b1-6)]GalNAc
# Summary of the method: as §1
# [4] = system: Gal(b1-3)[Neu5Ac(a2-6)]GalNAc
# Summary of the method: as §1
# [5] = system: Gal(b1-3)[Neu5Ac(a2-6)]GlcNAc(b1-6)Gal(b1-4)Glc
# Summary of the method: as §1
# [6] = system: Gal(b1-3)[Neu5Ac(b2-6)]GalNAc
# Summary of the method: as §1
# [7] = system: Gal(b1-4)GalNAc(a1-3)[Fuc(a1-2)]Gal(b1-4)GlcNAc
# Summary of the method: as §1
# [8] = system: Gal(b1-4)GalNAc(b1-3)[Fuc(a1-2)]Gal(b1-4)GlcNAc
# Summary of the method: as §1
# Gal(b1-4)Gal = system: Gal(b1-4)Gal
# Summary of the method: as §1
# Gal(b1-4)Glc6S = system: Gal(b1-4)Glc6S
# Summary of the method: as §1
# [9] = system: Gal(b1-4)GlcNAc(a1-6)Gal(b1-4)GlcNAc
# Summary of the method: as §1
# [10] = system: Gal(b1-4)GlcNAc(b1-2)Man(a1-3)Man(b1-4)GlcNAc(b1-4)GlcNAc
# Summary of the method: as §1
# [11] = system: Gal(b1-4)GlcNAc(b1-2)Man(a1-3)[Gal(b1-4)GlcNAc(b1-2)Man(a1-6)]Man(b1-4)GlcNAc(b1-4)GlcNAc
# Summary of the method: as §1
# [12] = system: Gal(b1-4)GlcNAc(b1-2)Man(a1-3)[Gal(b1-4)GlcNAc(b1-2)Man(a1-6)]Man(b1-4)GlcNAc(b1-4)[Fuc(a1-6)]GlcNAc
# Summary of the method: as §1
# [13] = system: Gal(b1-4)GlcNAc(b1-2)Man(a1-3)[Gal(b1-4)GlcNAc(b1-2)][GlcNAc(b1-4)]Man(b1-4)GlcNAc(b1-4)GlcNAc
# Summary of the method: as §1
# [14] = system: Gal(b1-4)GlcNAc(b1-2)Man(a1-3)[GlcNAc(b1-2)Man(a1-6)]Man(b1-4)GlcNAc(b1-4)GlcNAc
# Summary of the method: as §1
# [15] = system: Gal(b1-4)GlcNAc(b1-2)Man(a1-3)[Man(a1-6)]Man(b1-4)GlcNAc(b1-4)GlcNAc
# Summary of the method: as §1
# [16] = system: Gal(b1-4)GlcNAc(b1-2)Man(a1-6)Man(b1-4)GlcNAc(b1-4)GlcNAc
# Summary of the method: as §1
# [17] = system: Gal(b1-4)GlcNAc(b1-2)Man(a1-6)[GlcNAc(b1-2)Man(a1-3)]Man(b1-4)GlcNAc(b1-4)GlcNAc
# Summary of the method: as §1
# [18] = system: Gal(b1-4)GlcNAc(b1-2)Man(a1-6)[Man(a1-3)]Man(b1-4)GlcNAc(b1-4)GlcNAc
# Summary of the method: as §1
# Gal(b1-4)GlcNAc(b1-2)Man = system: Gal(b1-4)GlcNAc(b1-2)Man
# Summary of the method: as §1
# [19] = system: Gal(b1-4)GlcNAc(b1-2)[Gal(b1-4)GlcNAc(b1-4)]Man(a1-3)[Gal(b1-4)GlcNAc(b1-2)Man(a1-6)]Man(b1-4)GlcNAc(b1-4)GlcNAc
# Summary of the method: as §1
# [20] = system: Gal(b1-4)GlcNAc(b1-2)[Gal(b1-4)GlcNAc(b1-4)]Man(a1-3)[Gal(b1-4)GlcNAc(b1-2)[Gal(b1-4)GlcNAc(b1-6)]Man(a1-6)]Man(b1-4)GlcNAc(b1-4)GlcNAc
# Summary of the method: as §1
# [21] = system: Gal(b1-4)GlcNAc(b1-2)[Gal(b1-4)GlcNAc(b1-4)]Man(a1-3)[GlcNAc(b1-4)][Gal(b1-4)GlcNAc(b1-2)Man(a1-6)]Man(b1-4)GlcNAc(b1-4)GlcNAc
# Summary of the method: as §1
# [22] = system: Gal(b1-4)GlcNAc(b1-2)[Gal(b1-4)GlcNAc(b1-4)]Man(a1-3)[GlcNAc(b1-4)][Gal(b1-4)GlcNAc(b1-2)[Gal(b1-4)GlcNAc(b1-6)]Man(a1-6)]Man(b1-4)GlcNAc(b1-4)GlcNAc
# Summary of the method: as §1
# [23] = system: Gal(b1-4)GlcNAc(b1-2)[Gal(b1-4)GlcNAc(b1-4)]Man(a1-3)[GlcNAc(b1-4)][Gal(b1-4)GlcNAc(b1-2)[Gal(b1-4)GlcNAc(b1-6)]Man(a1-6)]Man(b1-4)GlcNAc(b1-4)[Fuc(a1-6)]GlcNAc
# Summary of the method: as §1
# [24] = system: Gal(b1-4)GlcNAc(b1-2)[Gal(b1-4)GlcNAc(b1-6)]Man(a1-6)[Gal(b1-4)GlcNAc(b1-2)Man(a1-3)]Man(b1-4)GlcNAc(b1-4)GlcNAc
# Summary of the method: as §1
# [25] = system: Gal(b1-4)GlcNAc(b1-2)[Gal(b1-4)GlcNAc(b1-6)]Man(a1-6)[Gal(b1-4)GlcNAc(b1-2)Man(a1-3)]Man(b1-4)GlcNAc(b1-4)[Fuc(a1-6)]GlcNAc
# Summary of the method: as §1
# [26] = system: Gal(b1-4)GlcNAc(b1-2)[Gal(b1-4)GlcNAc(b1-6)]Man(a1-6)[GlcNAc(b1-4)][Gal(b1-4)GlcNAc(b1-2)Man(a1-3)]Man(b1-4)GlcNAc(b1-4)GlcNAc
# Summary of the method: as §1
# [27] = system: Gal(b1-4)GlcNAc(b1-3)Gal(b1-3)GlcNAc
# Summary of the method: as §1
# [28] = system: Gal(b1-4)GlcNAc(b1-3)Gal(b1-4)GlcNAc(b1-3)Gal(b1-4)GlcNAc
# Summary of the method: as §1
# [29] = system: Gal(b1-4)GlcNAc(b1-3)Gal(b1-4)GlcNAc
# Summary of the method: as §1
# [30] = system: Gal(b1-4)GlcNAc(b1-3)Gal(b1-4)Glc
# Summary of the method: as §1
# [31] = system: Gal(b1-4)GlcNAc(b1-3)Gal(b1-4)[Fuc(a1-3)GlcNAc(b1-6)]Gal(b1-4)Glc
# Summary of the method: as §1
# [32] = system: Gal(b1-4)GlcNAc(b1-3)Gal(b1-4)[Fuc(a1-3)]GlcNAc(b1-3)Gal(b1-4)[Fuc(a1-3)]GlcNAc
# Summary of the method: as §1
# [33] = system: Gal(b1-4)GlcNAc(b1-3)GalNAc
# Summary of the method: as §1
# [34] = system: Gal(b1-4)GlcNAc(b1-3)[Gal(b1-4)GlcNAc(b1-6)]Gal(b1-4)GlcNAc
# Summary of the method: as §1
# [35] = system: Gal(b1-4)GlcNAc(b1-3)[Gal(b1-4)GlcNAc(b1-6)]GalNAc
# Summary of the method: as §1
# [36] = system: Gal(b1-4)GlcNAc(b1-3)[GlcNAc(b1-6)]Gal(b1-4)GlcNAc
# Summary of the method: as §1
# [37] = system: Gal(b1-4)GlcNAc(b1-6)Gal(b1-4)GlcNAc
# Summary of the method: as §1
# [38] = system: Gal(b1-4)GlcNAc(b1-6)GalNAc
# Summary of the method: as §1
# [39] = system: Gal(b1-4)GlcNAc(b1-6)[Gal(b1-3)]GalNAc
# Summary of the method: as §1
# Gal(b1-4)GlcNAc6P = system: Gal(b1-4)GlcNAc6P
# Summary of the method: as §1
# Gal(b1-4)GlcNAc = system: Gal(b1-4)GlcNAc
# Summary of the method: as §1
# Gal(b1-4)Glc = system: Gal(b1-4)Glc
# Summary of the method: as §1
# Gal(b1-6)Gal = system: Gal(b1-6)Gal
# Summary of the method: as §1
# Gal3S(b1-3)GalNAc = system: Gal3S(b1-3)GalNAc
# Summary of the method: as §1
# Gal3S(b1-3)GlcNAc = system: Gal3S(b1-3)GlcNAc
# Summary of the method: as §1
# [40] = system: Gal3S(b1-3)[Fuc(a1-4)]GlcNAc
# Summary of the method: as §1
# Gal3S(b1-4)Glc6S = system: Gal3S(b1-4)Glc6S
# Summary of the method: as §1
# Gal3S(b1-4)GlcNAc6S = system: Gal3S(b1-4)GlcNAc6S
# Summary of the method: as §1
# Gal3S(b1-4)GlcNAc = system: Gal3S(b1-4)GlcNAc
# Summary of the method: as §1
substance,measurement,setting,value
"Wza (Escherichia coli), P0A930",glycan array binding signal (z-score),[1],2.92
same,glycan array binding signal (z-score),[2],0.48
same,glycan array binding signal (z-score),[3],-0.325
same,glycan array binding signal (z-score),[4],-0.551
same,glycan array binding signal (z-score),[5],0.8
same,glycan array binding signal (z-score),[6],-0.193
same,glycan array binding signal (z-score),[7],-0.57
same,glycan array binding signal (z-score),[8],-1.67
same,glycan array binding signal (z-score),Gal(b1-4)Gal,-0.894
same,glycan array binding signal (z-score),Gal(b1-4)Glc6S,0.463
same,glycan array binding signal (z-score),[9],-1.08
same,glycan array binding signal (z-score),[10],0.005
same,glycan array binding signal (z-score),[11],-1.83
same,glycan array binding signal (z-score),[12],-0.063
same,glycan array binding signal (z-score),[13],-1.33
same,glycan array binding signal (z-score),[14],2.09
same,glycan array binding signal (z-score),[15],-0.371
same,glycan array binding signal (z-score),[16],1.02
same,glycan array binding signal (z-score),[17],-0.451
same,glycan array binding signal (z-score),[18],-0.746
same,glycan array binding signal (z-score),Gal(b1-4)GlcNAc(b1-2)Man,1.36
same,glycan array binding signal (z-score),[19],-0.4
same,glycan array binding signal (z-score),[20],-0.468
same,glycan array binding signal (z-score),[21],-1.9
same,glycan array binding signal (z-score),[22],-0.958
same,glycan array binding signal (z-score),[23],-0.703
same,glycan array binding signal (z-score),[24],0.806
same,glycan array binding signal (z-score),[25],-0.419
same,glycan array binding signal (z-score),[26],-0.843
same,glycan array binding signal (z-score),[27],-1.08
same,glycan array binding signal (z-score),[28],2.94
same,glycan array binding signal (z-score),[29],0.363
same,glycan array binding signal (z-score),[30],-0.227
same,glycan array binding signal (z-score),[31],0.06
same,glycan array binding signal (z-score),[32],-0.657
same,glycan array binding signal (z-score),[33],-0.945
same,glycan array binding signal (z-score),[34],-0.72
same,glycan array binding signal (z-score),[35],2.12
same,glycan array binding signal (z-score),[36],-0.077
same,glycan array binding signal (z-score),[37],-1.3
same,glycan array binding signal (z-score),[38],0.1
same,glycan array binding signal (z-score),[39],-0.156
same,glycan array binding signal (z-score),Gal(b1-4)GlcNAc6P,0.323
same,glycan array binding signal (z-score),Gal(b1-4)GlcNAc,-0.625
same,glycan array binding signal (z-score),Gal(b1-4)Glc,2.29
same,glycan array binding signal (z-score),Gal(b1-6)Gal,-0.876
same,glycan array binding signal (z-score),Gal3S(b1-3)GalNAc,0.611
same,glycan array binding signal (z-score),Gal3S(b1-3)GlcNAc,0.986
same,glycan array binding signal (z-score),[40],0.086
same,glycan array binding signal (z-score),Gal3S(b1-4)Glc6S,1.37
same,glycan array binding signal (z-score),Gal3S(b1-4)GlcNAc6S,-0.421
same,glycan array binding signal (z-score),Gal3S(b1-4)GlcNAc,0.136

# A stretch taken from the entries so far, as a working copy:
substance,measurement,setting,value
"Wza (Escherichia coli), P0A930",glycan array binding signal (z-score),[34],-0.72
same,glycan array binding signal (z-score),[35],2.12
